These are yes or no findings as the source states them, for the method shown. Some results given as binding are weak or reduced against the parent protein; the word gives no strength.
Tests used:
[1] = target: recombinant soluble FcεRIα (His-tagged extracellular domain of human FcεRIα) (human) (UniProt P12319); assay: summary of the binding experiments (ELISA, sandwich ELISA, Biacore)
[2] = target: native FcγRIIB expressed on cells (Raji, Daudi, PBMC B cells) (human) (UniProt P31994); assay: FACS on Raji cells, FITC anti-human kappa detection
[3] = target: recombinant soluble FcεRIα (His-tagged extracellular domain of human FcεRIα) (human) (UniProt P12319); assay: ELISA, sFcεRIα coated (FIG. 17)
[4] = target: recombinant soluble FcεRIα (His-tagged extracellular domain of human FcεRIα) (human) (UniProt P12319); assay: ELISA, sFcεRIα coated (FIG. 20)
[5] = target: recombinant soluble human FcγRIIB (UniProt P31994); assay: sandwich ELISA: SM101 coated, antibody, then sFcεRIα, detected with biotinylated anti-FcεRIα CRA1
[6] = target: recombinant soluble FcεRIα (His-tagged extracellular domain of human FcεRIα) (human) (UniProt P12319); assay: as above
[7] = target: recombinant soluble human FcγRIIB (UniProt P31994); assay: ELISA, SM101 coated (FIG. 16)
[8] = target: recombinant soluble human FcγRIIB (UniProt P31994); assay: summary of the binding experiments (ELISA, FACS, Biacore)
[9] = target: recombinant soluble FcεRIα (His-tagged extracellular domain of human FcεRIα) (human) (UniProt P12319); assay: ELISA, sFcεRIα coated
[10] = target: recombinant soluble FcεRIα (His-tagged extracellular domain of human FcεRIα) (human) (UniProt P12319); assay: ELISA, sFcεRIα coated, anti-human kappa-HRP detection
[11] = target: recombinant soluble human FcγRIIB (UniProt P31994); assay: ELISA, SM101 (sFcγRIIB) coated, anti-human kappa-HRP detection
[12] = target: recombinant soluble human FcγRIIB (UniProt P31994); assay: sandwich ELISA: SM101 coated, antibody, then sFcεRIα

Sequences of proteins named here, by UniProt entry; tags and fusion partners are left off. Residues count along the entry.
UniProt P12319, residues 26-205: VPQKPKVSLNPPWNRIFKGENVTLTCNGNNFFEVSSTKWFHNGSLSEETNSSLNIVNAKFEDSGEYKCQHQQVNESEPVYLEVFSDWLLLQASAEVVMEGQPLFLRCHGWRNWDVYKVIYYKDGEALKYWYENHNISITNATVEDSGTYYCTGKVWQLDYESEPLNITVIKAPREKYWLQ
UniProt P31994, residues 43-310: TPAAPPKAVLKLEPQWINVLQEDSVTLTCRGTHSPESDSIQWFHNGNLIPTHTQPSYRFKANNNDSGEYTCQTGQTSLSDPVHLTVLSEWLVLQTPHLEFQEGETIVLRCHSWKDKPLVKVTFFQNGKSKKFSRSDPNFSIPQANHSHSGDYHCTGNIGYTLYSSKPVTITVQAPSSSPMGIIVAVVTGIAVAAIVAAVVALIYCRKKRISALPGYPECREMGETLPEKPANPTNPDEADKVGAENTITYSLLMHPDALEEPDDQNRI

Measured: binding

B1: ch8A6_cε2-4 (bispecific antibody, not shown: large carriers)
heavy: EVQLVESGGDLVQPGRSLRLSCAASGFTFSDYYMAWVRQAPKKGLEWVASISSDGSNTYYGDSVKGRFTISRDNTRSNLYLQMNSLRSEDTATYYCARPGDYWGQGVMVTVSSASTKGPSVFPLAPSSKSTSGGTAALGCLVKDYFPEPVTVSWNSGALTSGVHTFPAVLQSSGLYSLSSVVTVPSSSLGTQTYICNVNHKPSNTKVDKRVEPKSCDKTFSVSSRDFTPPTVKILQSSCDGGGHFPPTIQLLCLVSGYTPGTINITWLEDGQVMDVDLSTASTTQEGELASTQSELTLSQKHWLSDRTYTCQVTYQGHTFEDSTKKCADSNPRGVSAYLSRPSPFDLFIRKSPTITCLVVDLAPSKGTVNLTWSRASGKPVNHSTRKEEKQRNGTLTVTSTLPVGTRDWIEGETYQCRVTHPHLPRALMRSTTKTSGPRAAPEVYAFATPEWPGSRDKRTLACLIQNFMPEDISVQWLHNEVQLPDARHSTTQPRKTKGSGFFVFSRLEVTRAEWEQKDEFICRAVHEAASPSQTVQRAVSVNPGK
light: NIVMTQSPTSMFISVGDRVTMNCKASQNVGTYVDWFQQKTGQSPTLLIFGASNRYTGVPDRFTGSGSGTDFTLSISNMQAEDLAVYYCLQYNYHPYTFGPGTTLELKR
not listed: [12]
binds: all other assays above

B2: ch8A6_cε3-4 (bispecific antibody, not shown: large carriers)
heavy: EVQLVESGGDLVQPGRSLRLSCAASGFTFSDYYMAWVRQAPKKGLEWVASISSDGSNTYYGDSVKGRFTISRDNTRSNLYLQMNSLRSEDTATYYCARPGDYWGQGVMVTVSSASTKGPSVFPLAPSSKSTSGGTAALGCLVKDYFPEPVTVSWNSGALTSGVHTFPAVLQSSGLYSLSSVVTVPSSSLGTQTYICNVNHKPSNTKVDKRVEPKSCDKTHTCPPCPAPELLGGVSAYLSRPSPFDLFIRKSPTITCLVVDLAPSKGTVNLTWSRASGKPVNHSTRKEEKQRNGTLTVTSTLPVGTRDWIEGETYQCRVTHPHLPRALMRSTTKTSGPRAAPEVYAFATPEWPGSRDKRTLACLIQNFMPEDISVQWLHNEVQLPDARHSTTQPRKTKGSGFFVFSRLEVTRAEWEQKDEFICRAVHEAASPSQTVQRAVSVNPGK
light: NIVMTQSPTSMFISVGDRVTMNCKASQNVGTYVDWFQQKTGQSPTLLIFGASNRYTGVPDRFTGSGSGTDFTLSISNMQAEDLAVYYCLQYNYHPYTFGPGTTLELKR
binds: [2] | [12] | [5] | [7] | [8] | [11]

Source: patent publication US20170226208A1 (SUPPREMOL, published 2017)
